By AC50 is commonly meant the concentration at which the activity in the assay is half-maximal.

Each structure is given as a SMILES string. The list shows a part of the results. Further columns of the screen follow, without active or inactive calls. Compounds called inactive in the main read-out are mostly missing here. Potencies come from curve fits of mixed quality, noted in brackets.

The test can be described thus: IkB Signaling. The following applies: ABC-DLBCL IkBa-CBG/CBR dual luciferase ratio (green luciferase fused to IkBa over red control in OCI-Ly3 lymphoma cells), 4 h; measured here: control luc red channel unless noted. In a few lines: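 In this assay, an IκBα–CBG68 fusion accumulates when IKK-driven degradation is blocked; native CBR normalizes for cell number. OCI-Ly3 cells were treated 4 h with compound and doxycycline, then green and red light read after Chroma-Glo addition.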
Take `C=CCn1c(=O)c(C(=O)Nc2ccccc2OC)c(O)c2ccccc21`: the AC50 is 0.251 µM [falling, full curve]. Next, `CCOc1ccc(C(=O)NC2CC(=O)N(c3ccc(C)cc3)C2)cc1OCC` (stereo not drawn): 1 µM [falling, partial curve]; `COc1ccc(NC(=O)CSc2nc3c(c(=O)n2-c2ccc(F)cc2)SCC3)cc1`: 3.98 µM [falling, full curve]. As for `CC1CCN(S(=O)(=O)c2ccc3c(ccn3CCC(=O)NCc3ccccc3F)c2)CC1`, the AC50 is 31.6 µM [falling, partial curve]. The same measure for `CCC(C)(C)n1nnnc1C(c1cccs1)N1CCc2ccccc21` (stereo not drawn): 25.1 µM [falling, partial curve]; for `COc1ccc(NC(=O)c2c(-c3ccccc3)c(-c3ccccc3)nn(C)c2=O)cc1OC`: 12.6 µM [falling, partial curve]; for `Cc1cccc(-n2ncc3c(Nc4ccc(C)c(Cl)c4)ncnc32)c1`: 12.6 µM [rising, partial curve]. The same measure for `Cc1ccccc1NC(=O)CCS(=O)(=O)c1cc(Br)cc2c1N(C(=O)C1CC1)CC2`: 10 µM [falling, partial curve]; for `Cc1ccccc1CNC(=O)CN1C(=O)C2CCCCN2c2ccc(C(=O)N3CCCC3)cc21` (stereo not drawn): 31.6 µM [falling, partial curve]. As for `COC(=O)c1ccc(COc2ccc(C3C4=C(CCCC4=O)Nc4onc(C)c43)cc2)cc1` (stereo not drawn), the AC50 is 20 µM [falling, single point].

Turning to `Cc1ccccc1OCC(=O)Nc1cccc(C(=O)OCc2cc(=O)n3c(C)csc3n2)c1`, the AC50 was 10 µM [falling, partial curve].

On to `Cc1ccc(S(=O)(=O)Cc2ccc(C(=O)N3CCN(c4cccc(Cl)c4)CC3)o2)cc1`, for which the AC50 is 25.1 µM [falling, single point].

As for `O=C(Cn1c(=O)n(-c2ccc(Cl)cc2)c(=O)c2sc3ccccc3c21)NC1CCCC1`, the AC50 is 39.8 µM [falling, single point]. The same measure for `COC(=O)c1ccccc1NC(=O)c1cc2cc(C)ccc2n1C`: 3.98 µM [rising, partial curve].

For the compound `CCc1nc2cccnc2n1-c1ccc(CC(=O)Nc2cccc(C)c2C)cc1`, the AC50 was 31.6 µM [falling, single point]. Next, `c1ccc(CN2CCN(c3ncnc4c3cnn4-c3ccccc3)CC2)cc1`: 39.8 µM [rising, single point]. The same measure for `CCc1cc(C(=O)Cc2ccc(F)cc2)c(O)cc1O`: 7.94 µM [falling, full curve, poor fit]. The same measure for `CCc1cccc(NC(=O)C2CCC(CNS(=O)(=O)c3ccc(Br)s3)CC2)c1` (stereo not drawn): 12.6 µM [falling, partial curve].

The record behind these values is PubChem BioAssay AID445 (National Center for Advancing Translational Sciences (NCATS), 2006).
